Earlier results in US20240269073A1, “CO-AMORPHOUS FORMS FOR USE IN CANCER THERAPY” (Zerion Pharma APS, priority 2021, published 2024).
At least one structure is not confirmed: it was looked up by name or label, or the drawing left a doubt.

Conditions: cited from earlier work

Question: What does the source list for `C[C@]12CCC(=O)C=C1CC[C@H]1[C@@H]3CC[C@](O)(C(=O)CO)[C@@]3(C)C[C@H](O)[C@@]12F` [Fludrocortisone]?
Answer: Hydrocortisone equivalent (1 mg of the glucocorticoid corresponds to the listed amount in mg of hydrocortisone): 400 mg; Equivalent amount (equivalent glucocorticoid dose): 0.05 mg
